{"source": "PubChem BioAssay AID485314", "about": "(National Center for Advancing Translational Sciences (NCATS), 2010)", "note": "Among all 340,000 compounds or so, about 4,500 (1.3%) were called active. The shares of active, inactive and inconclusive entries below differ from those in the screen. Calls follow the shape of the dose curve; as a rule, active = well fitted inhibition curve with a large enough effect; inconclusive = small, poorly fitted or top-dose-only effect, or another doubt; inactive = no such curve, though single readings can be large or run the other way. Potencies of inconclusive entries are doubtful fits and often do not repeat. Potency is read from the fitted curve at half-maximal effect.", "data": [{"biological_target": "DNA polymerase beta (Homo sapiens) (UniProt P06746)", "test": "qHTS Assay for Inhibitors of DNA Polymerase Beta", "settings": "Pol beta primer extension/strand displacement, fluorescence kinetic; series mostly up to 114 µM", "outline": "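Preincubation: enzyme (10 nM) with compound, 15 min, RT. Reaction: substrate added to 50 nM final. Reads: 0 and 10 min. Analysis: normalized, Hill fit.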", "values": [{"smiles": "CC1(C)CC(=O)C(C(=O)/C=C/c2ccco2)C(=O)C1", "Potency": "active: 11.2 µM"}, {"smiles": "Cc1ccc(SCc2ccc(C(=O)NCc3cccnc3)cc2)cc1", "Potency": "inconclusive: 50.1 µM [inhibitor, partial curve]"}, {"smiles": "COc1cc(NC(=O)CSc2ncnc3sc4c(c23)CCC(C)C4)c(C(=O)O)cc1OC", "note": "(centres undefined)", "Potency": "inconclusive: 70.8 µM [inhibitor, single point]"}, {"smiles": "c1ccc(Oc2cccc(OCCCn3cncn3)c2)cc1", "Potency": "inactive"}, {"smiles": "COc1ccccc1N(CC(=O)Nc1cccnc1)S(C)(=O)=O", "Potency": "inconclusive: 0.282 µM [inhibitor, full curve]"}, {"smiles": "N#C/C(=C\\c1ccc(-c2cccc(Cl)c2)o1)C(=O)Nc1cccc(C(F)(F)F)c1", "Potency": "inactive"}, {"smiles": "Fc1ccc(N2CCN(c3ncnc4[nH]ncc34)CC2)cc1", "Potency": "inactive"}, {"smiles": "Cc1nc(NC(=O)CSc2nnc(C)n2CC2CCCO2)sc1C", "note": "(centres undefined)", "Potency": "inactive"}, {"smiles": "COc1cccc(N2CCN(CC(=O)NC3=Nc4ccccc4N=C(C)C3c3ccccc3)CC2)c1", "note": "(centres undefined)", "Potency": "inconclusive: 79.4 µM [inhibitor, single point]"}, {"smiles": "CCC(C(=O)Nc1ccc(C(C)=O)cc1)n1cnc2nc3c(cc2c1=O)CCCC3", "note": "(centres undefined)", "Potency": "inactive"}, {"smiles": "CCOC(=O)N1CCC(NC(=O)Cn2ncc3ccccc32)CC1", "Potency": "inactive"}, {"smiles": "COc1ccc(C2CC(=O)N3CN(c4ccc(C)c(Cl)c4)CSC3=C2C#N)cc1", "note": "(centres undefined)", "Potency": "inconclusive: 20 µM [inhibitor, full curve]"}, {"smiles": "FC(F)(F)c1cccc(Cn2c3[n+](c4ccc(C(F)(F)F)cc42)CCCCC3)c1", "Potency": "inactive"}, {"smiles": "Cc1ccc(/C=C(\\NC(=O)c2ccc(C)cc2)c2nc(=S)[nH][nH]2)cc1", "Potency": "inconclusive: 10 µM [inhibitor, full curve, poor fit]"}, {"smiles": "Cc1cc(C(=O)CSc2nc3ccccc3c(=O)[nH]2)c(C)n1C", "Potency": "inconclusive: 89.1 µM [inhibitor, single point]"}, {"smiles": "CCCCCNc1nc(NCCCO)c(C#N)c2c1CN(C)CC2", "Potency": "inconclusive: 79.4 µM [inhibitor, partial curve]"}, {"smiles": "COc1ccc(-n2c(=O)c3c4c(sc3n(Cc3ccc(C)cc3C)c2=O)CCC4)c(OC)c1", "Potency": "inactive"}, {"smiles": "COC(=O)c1cccc(NC(=O)c2nn(C(C)C)c(=O)c3ccccc23)c1", "Potency": "inconclusive: 12.6 µM [inhibitor, partial curve, poor fit]"}, {"smiles": "CCOC(=O)c1csc(NC(=O)CSc2nnnn2-c2ccc3c(c2)OCCO3)n1", "Potency": "inconclusive: 50.1 µM [inhibitor, partial curve]"}, {"smiles": "Cn1cc(/C=C/c2cc[n+](C)cc2)c2cc(Cl)ccc21", "Potency": "inconclusive: 28.2 µM [inhibitor, full curve]"}, {"smiles": "Cc1ccc(S(=O)(=O)Nc2ccc(NC(=O)Nc3cccc(C(F)(F)F)c3)cc2)cc1", "Potency": "inconclusive: 79.4 µM [inhibitor, single point]"}, {"smiles": "Cc1ccc(CCNC(=O)CCS(=O)(=O)Cc2ccc(C)cc2)cc1", "Potency": "inconclusive: 0.794 µM [inhibitor, full curve, poor fit]"}, {"smiles": "CC1N=C2c3ccccc3N=C(SCc3cc(=O)n4cc(Cl)ccc4n3)N2C1=O", "note": "(centres undefined)", "Potency": "inconclusive: 79.4 µM [inhibitor, single point]"}, {"smiles": "CCOc1ccc(NC(=O)C2CCN(c3nc4ccccc4[nH]3)CC2)cc1", "Potency": "inactive"}, {"smiles": "COC(=O)c1c(-c2ccco2)csc1NC(=O)C1CC=CCC1C(=O)O", "note": "(centres undefined)", "Potency": "inconclusive: 31.6 µM [inhibitor, full curve, poor fit]"}, {"smiles": "CN(C)CCNc1c2c(nc3nnnn13)CCCC2", "Potency": "inconclusive: 89.1 µM [inhibitor, single point]"}, {"smiles": "COC(=O)C1=C(C)N=C2SCCC(=O)N2C1c1ccc(OCc2ccccc2)c(OC)c1", "note": "(centres undefined)", "Potency": "inconclusive: 79.4 µM [inhibitor, single point]"}, {"smiles": "CCn1cc(Cl)c(C(=O)Nc2cc(C(=O)OC)cc(C(=O)OC)c2)n1", "Potency": "inconclusive: 15.8 µM [inhibitor, single point]"}, {"smiles": "O=C(NCCc1csc(-c2ccc(F)cc2)n1)c1ccco1", "Potency": "inactive"}, {"smiles": "CNC(=O)COC(=O)c1c2c(nc3ccccc13)CCC2", "Potency": "active: 20 µM"}, {"smiles": "O=S(=O)(Nc1nc(-c2sccc2Cl)cs1)c1cc(Cl)ccc1Cl", "Potency": "active: 31.6 µM"}, {"smiles": "Cc1ccc(/C=N/n2cnc3sc(-c4ccccc4)cc3c2=O)o1", "Potency": "inconclusive: 70.8 µM [inhibitor, partial curve, poor fit]"}, {"smiles": "CCCCCCCC1CC(/C(C)=N/NC(N)=O)OC1=O", "note": "(centres undefined)", "Potency": "inactive"}, {"smiles": "CC(Sc1ccsc1[N+](=O)[O-])C(=O)NCc1ccccc1", "note": "(centres undefined)", "Potency": "inactive"}, {"smiles": "NC(=O)[C@@H]1CCCNc2c(I)cc([N+](=O)[O-])cc2C(=O)N[C@@H](Cc2ccccc2)C(=O)N[C@@H](Cc2cnc[nH]2)C(=O)N1", "Potency": "inconclusive: 56.2 µM [inhibitor, partial curve, poor fit]"}, {"smiles": "Cc1nc2ccc(C(=O)O)cc2c2c1CC(C)S2", "note": "(centres undefined)", "Potency": "active: 22.4 µM"}, {"smiles": "COc1ccc(CCNC(=O)Cn2nc(C)c3c(C)n(-c4ccccc4)nc3c2=O)c(OC)c1", "Potency": "inactive"}, {"smiles": "COc1ccc(N2CC(NC(=O)COc3ccc(F)cc3)CC2=O)cc1OC", "note": "(centres undefined)", "Potency": "inactive"}, {"smiles": "Cc1nnc(C)n1/N=C/c1ccc(-c2ccccc2Cl)o1", "Potency": "inactive"}, {"smiles": "COc1ccc(Nc2nc(S(=O)(=O)c3ccc(C)cc3)c(Cl)s2)cc1", "Potency": "inconclusive: 0.447 µM [inhibitor, full curve, poor fit]"}, {"smiles": "CCOC(=O)c1ccc(NC(=O)CSc2ccc(-c3ccccn3)nn2)cc1", "Potency": "inconclusive: 3.98 µM [inhibitor, full curve]"}, {"smiles": "COc1ccc(S(=O)(=O)NCCc2nnc3ccc(SCC(=O)Nc4cc(C)cc(C)c4)nn23)cc1", "Potency": "inactive"}, {"smiles": "O=C(COC(=O)c1ccccc1NS(=O)(=O)c1cc([N+](=O)[O-])ccc1Cl)c1ccccc1", "Potency": "inconclusive: 44.7 µM [inhibitor, partial curve]"}, {"smiles": "CC(=O)Nc1ccc2c3c(cccc13)C(=O)N(c1ccccc1)C2=O", "Potency": "inactive"}, {"smiles": "Cc1nc2ccccn2c1-c1ccnc(=S)[nH]1", "Potency": "inconclusive: 89.1 µM [inhibitor, single point]"}, {"smiles": "COc1ccc(-c2ccc(SCC(=O)Nc3cc(C)on3)nn2)cc1OC", "Potency": "inconclusive: 25.1 µM [inhibitor, partial curve]"}, {"smiles": "Cc1ccccc1CSCC(=O)N1CCN(c2ccccc2)CC1", "Potency": "inconclusive: 3.55 µM [inhibitor, full curve]"}, {"smiles": "COc1ccc(/C=C2/SC(=O)N(CCC(=O)Nc3ccc(C)cc3)C2=O)cc1OC", "Potency": "inactive"}, {"smiles": "Cn1cc(Br)c(C(=O)Nc2sc3c(c2C#N)CCC3)n1", "Potency": "inactive"}, {"smiles": "O=C1C2=C(C(=O)c3ccccc31)C1O[C@](c3ccsc3)(Cc3c1ccc1ccccc31)O2", "Potency": "active: 3.16 µM"}, {"smiles": "COC(=O)c1nc(NC(=O)C(C)(C)C)n[nH]1", "Potency": "inactive"}, {"smiles": "Cn1cnnc1SCc1ccc(C(=O)N=Nc2c(O)n(C)c3ccccc23)cc1", "Potency": "inconclusive: 39.8 µM [inhibitor, single point]"}, {"smiles": "CC(C)CCNC(=O)CN(C(=O)CCC(=O)Nc1nccs1)c1ccc2c(c1)OCCO2", "Potency": "inconclusive: 39.8 µM [inhibitor, single point]"}, {"smiles": "c1ccc2c(NCCCN3CCOCC3)c3ccccc3nc2c1", "Potency": "inconclusive: 35.5 µM [inhibitor, full curve]"}, {"smiles": "CCC(C)NC(=O)C1(C)CCC(=O)N1Cc1ccccc1OC", "note": "(centres undefined)", "Potency": "inactive"}, {"smiles": "O=C(CCCOc1ccccc1)OCn1nnc2ccccc2c1=O", "Potency": "inconclusive: 89.1 µM [inhibitor, single point]"}, {"smiles": "CC1=C(C(=O)OCc2ccccc2)C(c2ccc(C#N)cc2)NC(=O)N1CCCC(=O)O", "note": "(centres undefined)", "Potency": "inactive"}, {"smiles": "CCOC(=O)CC1=C(C(=O)OCC)C(c2cccs2)C(C#N)=C(N)O1", "note": "(centres undefined)", "Potency": "inactive"}, {"smiles": "CC(=O)Nc1ccc(NC(=O)CS(=O)(=O)c2cn(CC(=O)N3CCCC3)c3ccccc23)cc1", "Potency": "inconclusive: 56.2 µM [inhibitor, partial curve]"}, {"smiles": "COc1ccc(-c2nnc(SCC(=O)Nc3cc(OC)ccc3OC)nc2-c2ccc(OC)cc2)cc1", "Potency": "inactive"}, {"smiles": "CCOC(=O)c1c(NC(=O)/C=C/C(=O)O)sc(C)c1-c1ccc(C(C)(C)C)cc1", "Potency": "inconclusive: 31.6 µM [inhibitor, full curve]"}, {"smiles": "COc1cc2c(cc1OC)C1CC(=O)C(CC(C)C)CN1CC2", "note": "(centres undefined)", "Potency": "inconclusive: 3.98 µM [inhibitor, single point]"}, {"smiles": "N/C(=N\\OC(=O)CCc1ccccc1)c1ccccc1Cl", "Potency": "inconclusive: 0.126 µM [inhibitor, full curve, poor fit]"}, {"smiles": "CCc1cccc(C)c1NC(=O)C1CC=CCC1C(=O)O", "note": "(centres undefined)", "Potency": "inconclusive: 39.8 µM [inhibitor, single point]"}, {"smiles": "O=C(NCCCN1CCc2ccccc2C1)C1CCN(c2nnc(-n3cccc3)s2)CC1", "Potency": "inconclusive: 12.6 µM [inhibitor, partial curve, poor fit]"}, {"smiles": "Cc1ccc(-c2cc[n+](Cc3ccccc3)cc2)cc1", "Potency": "inactive"}, {"smiles": "O=c1c2c(nc3cc(-c4ccccc4Cl)[nH]n13)CCS2", "Potency": "active: 35.5 µM"}, {"smiles": "CC1(C)CC(=O)C2=C(C1)NC(=O)NC2c1ccccc1", "note": "(centres undefined)", "Potency": "inactive"}, {"smiles": "CCc1cc(-c2n[nH]c(C)c2-c2nc(C)cs2)c(O)cc1OC", "Potency": "inconclusive: 89.1 µM [inhibitor, single point]"}, {"smiles": "O=C(N/N=C/c1c[nH]c2ccccc12)c1cccs1", "Potency": "inconclusive: 79.4 µM [inhibitor, single point]"}, {"smiles": "Cc1ccc(-c2ccc(=O)n(Cc3cccc(Br)c3)n2)cc1", "Potency": "inactive"}, {"smiles": "C=C(CC)C(=O)c1ccc(OCC(=O)O)c(Cl)c1Cl", "Potency": "inactive"}, {"smiles": "CC(C)(C)c1nnc2sc(SCC(=O)c3ccccc3)nn2c1=O", "Potency": "inactive"}, {"smiles": "COc1ccc(C(=O)N2CCCC(C(=O)N3CCN(c4ccccc4)CC3)C2)cc1", "note": "(centres undefined)", "Potency": "inconclusive: 0.224 µM [inhibitor, full curve]"}]}]}
